Assay results from PubChem BioAssay AID1347076 (National Center for Advancing Translational Sciences (NCATS), 2019).
Screen size: about 400,000 compounds; about 13,000 (3.2%) were called active. The inconclusive results got no clear call from the source; some entries with a clear call stand among them for comparison. Calls come from the whole dose curve; as a rule, active = well fitted cell-killing curve with a large enough effect; inconclusive = small, poorly fitted or top-dose-only effect, or effect the other way; inactive = flat fitted curve, though single readings scatter. Where the call is inconclusive, the potency comes from a doubtful curve fit.

assay: qHTS assay for MDR1-selective chemotherapeutics: Primary screen using the drug-selected MDR subline cells KB-V1; conditions: KB-V1 MDR cells viability, CellTiter-Glo, 72 h; activity change, negative = cytotoxicity: at 46.1 µM (top of the series); note: nearly all actives have a fitted effect of over 60% in size
Procedure, shortened: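 Drug-selected KB-V1 cells, grown in DMEM lacking phenol red with 10% FBS, receive compound titrations; after three days at 37 degrees C, surviving cell ATP is quantified by CellTiter-Glo luminescence and responses normalized and curve-fitted.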
% is set by controls: 0 for no effect and ±100 for the full control effect; potency is the fitted concentration of half-maximal effect.

With Cc1nc(Nc2ncc(C(=O)Nc3c(C)cccc3Cl)s2)cc(N2CCN(CCO)CC2)n1 as the molecule, how does the “activity change, negative = cytotoxicity” value read?
Its value is inactive: 0%.

Which “activity change, negative = cytotoxicity” value does the source give for COc1ccc(COC(=O)C2=C(C)NC(=O)NC2c2cccc(OC)c2OC)cc1 (configuration not stated) here?
The value was inactive: -21.9%.

With COc1ccc(-c2sc3ccc(N4CCOCC4)cc3c2C#CC(C)(C)O)cc1 as the molecule, how does the “activity change, negative = cytotoxicity” value read?
The value was inactive: 0%.

For Cc1ccnc(NS(=O)(=O)c2ccc(NC(=O)CN3C(=O)c4ccccc4S3(=O)=O)cc2)n1, which Potency is on record?
The Potency was inconclusive: 2.91 µM [rising, full curve].

For COc1ccc(-n2nc(C(=O)NCC(=O)NC3CCCC(C)C3C)c3ccccc3c2=O)c(OC)c1 (configuration not stated), which Potency is on record?
Its Potency is inconclusive: 5.17 µM [cytotoxic, partial curve, poor fit].

Which Potency does the source give for CC(C)OC(=O)C1C(=O)CC(C)(O)C(C(=O)OC(C)C)C1c1cccc([N+](=O)[O-])c1 (configuration not stated) here?
The Potency was inconclusive: 11.6 µM [cytotoxic, partial curve].

Which Potency does the source give for CCOCCCNC(=O)C(NC(=O)C1CCC(=O)N1)c1ccc(C)cc1 (configuration not stated) here?
The Potency was inconclusive: 25.9 µM [rising, partial curve, poor fit].

Which “activity change, negative = cytotoxicity” value does the source give for O=C1C2C3C=CC(O3)C2C(=O)N1Nc1ccccc1 (configuration not stated) here?
The value was inactive: 22.1%.

With c1ccc(OCCNc2nc(NCC3CC3)nc3cc(-c4ccccc4)sc23)cc1 as the molecule, how does the Potency read?
Its Potency is inconclusive: 18.4 µM [cytotoxic, single point].

With Cc1cccc(-c2nc(CSCC(=O)NCCCN3CCOCC3)c(C)o2)c1 as the molecule, how does the Potency read?
Its Potency is inconclusive: 13 µM [cytotoxic, partial curve].

Which “activity change, negative = cytotoxicity” value does the source give for CC(=O)N1CCN(CC(O)COc2ccc(Br)cc2)CC1 (configuration not stated) here?
Its value is inactive: 1.22%.

With CCCCNC(=S)N/N=C/c1cc(C)ccc1C as the molecule, how does the Potency read?
Its Potency is inconclusive: 29.1 µM [cytotoxic, single point].

For COc1ccc(Cl)cc1NC(=O)Cn1c(=O)n(Cc2ccc(F)cc2)c(=O)c2cccnc21, which “activity change, negative = cytotoxicity” value is on record?
Its value is inactive: 4.9%.

Which Potency does the source give for O=c1c2sccc2nc(SCc2cc(=O)n3cc(Br)ccc3n2)n1Cc1ccccn1 here?
Its Potency is inconclusive: 9.2 µM [cytotoxic, partial curve].

For CC(C)(C)c1ccc(NC(=O)NCc2ccco2)cc1, which Potency is on record?
The Potency was inconclusive: 18.4 µM [cytotoxic, single point].

For CCOC(=O)c1sc(=S)n(CC)c1NC(=O)c1ccccc1C, which Potency is on record?
The Potency was inconclusive: 25.9 µM [cytotoxic, single point].

With CCOC(=O)[C@H]1[C@H]2COc3ccc(Br)cc3[C@H]2N2C(=O)CN(Cc3ccc(C)cc3)C(=O)[C@@]12C as the molecule, how does the “activity change, negative = cytotoxicity” value read?
Its value is inactive: -19.7%.

Which Potency does the source give for CCN(CC(=O)Nc1ccc(C)c(S(=O)(=O)N2CCOCC2)c1)Cc1ccccc1 here?
The Potency was inconclusive: 29.1 µM [cytotoxic, single point].

With O=C(C1CSC2(c3ccc(F)cc3)CCC(=O)N12)N1CCCCCC1 (configuration not stated) as the molecule, how does the Potency read?
Its Potency is inconclusive: 18.4 µM [cytotoxic, partial curve, poor fit].

With CCOC(=O)C1(CCCc2ccccc2)CCN(C(=O)c2n[nH]c(CC)c2C)CC1 as the molecule, how does the Potency read?
The Potency was inconclusive: 29.1 µM [cytotoxic, single point].

Which Potency does the source give for COc1cc(OC)cc(C(=O)Nc2nc3ccc(S(C)(=O)=O)cc3s2)c1 here?
Its Potency is inconclusive: 29.1 µM [cytotoxic, single point].

Which Potency does the source give for CCN(CC)S(=O)(=O)c1ccc(Cl)c(NC(=O)c2ccccc2C)c1 here?
The Potency was inconclusive: 9.2 µM [cytotoxic, partial curve].

With O=c1ccc2ccc(O[C@@H]3O[C@H](CO)[C@@H](O)[C@H](O)[C@H]3O)c(O)c2o1 as the molecule, how does the Potency read?
Its Potency is inconclusive: 11.6 µM [rising, partial curve, poor fit].

With CC1CN(C(=O)N2CCC(C(=O)NCc3ccccc3F)CC2)c2cc(Cl)ccc2O1 (configuration not stated) as the molecule, how does the “activity change, negative = cytotoxicity” value read?
The value was inactive: -14.1%.

Which “activity change, negative = cytotoxicity” value does the source give for O=C(C1=C[C@H](C2CC2)C[C@H](OCCCCO)O1)N1CCOCC1 here?
Its value is inactive: -0.435%.

With CN(Cc1ccccc1)C(=O)CSc1nc2ccccc2[nH]1 as the molecule, how does the “activity change, negative = cytotoxicity” value read?
Its value is inactive: -16%.

For O=C(CCC1COc2ccccc2O1)Nc1ccc(Cl)cn1 (configuration not stated), which Potency is on record?
The Potency was inconclusive: 20.6 µM [cytotoxic, single point].

For CCCNC(=O)c1ccc2c(=O)c(O)c(-c3ccsc3)[nH]c2c1, which Potency is on record?
The Potency was inconclusive: 14.6 µM [rising, partial curve, poor fit].

With O=C(O)c1cccc(OCc2ccccc2Cl)c1 as the molecule, how does the Potency read?
The Potency was inconclusive: 35.5 µM [cytotoxic, single point].

For CCOc1ccc(NC(=O)C(C)n2c(=O)cc(-c3ccccc3)c3c(C)nn(C)c32)cc1 (configuration not stated), which “activity change, negative = cytotoxicity” value is on record?
Its value is inactive: 3.61%.

With CC(=O)Nc1ccc(/C(C)=N/Nc2nc(Nc3cccc4ccccc34)nc(N3CCOCC3)n2)cc1 as the molecule, how does the Potency read?
The Potency was inconclusive: 29.1 µM [cytotoxic, single point].

Which Potency does the source give for Cc1ccc(Cl)cc1NC(=O)CCn1cnc2ccccc2c1=O here?
Its Potency is inconclusive: 29.1 µM [cytotoxic, single point].

Which “activity change, negative = cytotoxicity” value does the source give for Cc1c([N+](=O)[O-])cnc(Sc2ccccc2)c1[N+](=O)[O-] here?
The value was inactive: 23.5%.

With Oc1ccccc1-c1nc(NCC2CCCO2)c2ccccc2n1 (configuration not stated) as the molecule, how does the Potency read?
Its Potency is inconclusive: 25.9 µM [cytotoxic, single point].

With Cc1c(Cl)cccc1NC(=O)COC(=O)c1c2c(nc3ccccc13)CCN(Cc1ccccc1)C2 as the molecule, how does the Potency read?
The Potency was active: 2.06 µM.

For O=C(/C(=C(\O)c1ccccc1)c1nc2ccccc2[nH]1)c1ccccc1, which Potency is on record?
Its Potency is inconclusive: 23.1 µM [cytotoxic, single point].

For COc1ccccc1N(CC(=O)NC1CCCC1)S(=O)(=O)c1ccc(C)cc1, which Potency is on record?
The Potency was inconclusive: 7.31 µM [cytotoxic, partial curve].

With CCC(C)NCCCCOc1ccc(Cl)cc1C (configuration not stated) as the molecule, how does the Potency read?
Its Potency is active: 16.4 µM.

With Cc1ccccc1Cn1ccc(NC(=O)c2cnn3cccnc23)n1 as the molecule, how does the Potency read?
Its Potency is inconclusive: 9.2 µM [cytotoxic, partial curve].

With COc1ccc(-c2onc(C)c2-c2ccc(C(=O)OC(C)C)o2)c(O)c1 as the molecule, how does the Potency read?
Its Potency is active: 20.6 µM.

For COc1ccccc1N1CCN(CC(=O)NC(=O)NCc2ccco2)CC1, which Potency is on record?
Its Potency is inconclusive: 23.1 µM [cytotoxic, single point].

Which Potency does the source give for CC(=O)c1sc2nc(-c3ccc(C)cc3)c3c(c2c1N)CCCC3 here?
Its Potency is active: 18.4 µM.

For CCN(CC)c1ccc(C(=C2C=CC(=[N+](CC)CC)C=C2)c2ccc(N(CC)CC)cc2)cc1, which Potency is on record?
The Potency was inconclusive: 32.6 µM [cytotoxic, single point].

For CCCCCC(=O)N1CCN(CCN=CC2=C(O)CC(c3cccs3)CC2=O)CC1 (configuration not stated), which Potency is on record?
Its Potency is inconclusive: 23.1 µM [cytotoxic, single point].

With COc1ccccc1N1CCN(C2CCCN(C(=O)CCc3cnccn3)C2)CC1 (configuration not stated) as the molecule, how does the Potency read?
Its Potency is inconclusive: 3.26 µM [rising, partial curve].

Which Potency does the source give for Nc1nc(CSC(=S)N2CCN(c3ccccc3)CC2)nc(Nc2ccccc2)n1 here?
Its Potency is active: 3.26 µM.

Which “activity change, negative = cytotoxicity” value does the source give for CCc1cc(=O)oc2c(CNC(Cc3ccccc3)C(=O)O)c(O)ccc12 (configuration not stated) here?
The value was inactive: 16.2%.

For COc1cc(/C=N/Nc2nc(=O)[nH]nc2C)cc([N+](=O)[O-])c1O, which Potency is on record?
The Potency was inconclusive: 20.6 µM [rising, single point].

For CCc1ccccc1S(=O)(=O)Cc1ccc(C(=O)N2CCN(c3ccccc3OC)CC2)o1, which Potency is on record?
Its Potency is inconclusive: 25.9 µM [cytotoxic, partial curve, poor fit].

With CC1CC(C)CN(C(=O)C(C)N(C)CC(=O)Nc2ccccc2Cl)C1 (configuration not stated) as the molecule, how does the Potency read?
The Potency was inconclusive: 10.3 µM [cytotoxic, partial curve, poor fit].

For CC(C)OC(=O)c1ccc(NCc2cc(O)ccc2O)cc1, which Potency is on record?
Its Potency is inconclusive: 20.6 µM [cytotoxic, single point].

For CSc1nc(N)nc(SCC(=O)c2ccccc2)c1C#N, which Potency is on record?
Its Potency is inconclusive: 10.3 µM [cytotoxic, partial curve].

Which Potency does the source give for COC(=O)C1=C(C)N(Cc2ccccc2)C(=NCc2cccc(C(F)(F)F)c2)N[C@H]1c1cccc(C(F)(F)F)c1 here?
Its Potency is inconclusive: 29.1 µM [cytotoxic, single point].

With CC(C)Cn1c(SCc2cccc(F)c2)nc2ccsc2c1=O as the molecule, how does the Potency read?
The Potency was inconclusive: 20.6 µM [cytotoxic, single point].

Which Potency does the source give for CCOc1ccc(CNC(=O)c2cccc(Nc3nc4ccccc4n4nnnc34)c2)cc1OC here?
Its Potency is inconclusive: 6.51 µM [cytotoxic, partial curve].

With CN=C(Nc1ccc(Cl)cc1)c1ccc(C(F)(F)F)cc1 as the molecule, how does the Potency read?
Its Potency is inconclusive: 6.51 µM [cytotoxic, partial curve].

With CCOc1ccc(OCC)c(NC(=O)CSc2nc3c(c(=O)n(C)c(=O)n3C)n2CC)c1 as the molecule, how does the Potency read?
The Potency was inconclusive: 8.2 µM [cytotoxic, partial curve].

With CCOc1ccc(NC(=O)CN(C)C(=O)c2cccnc2Sc2ccc(C)cc2C)cc1OCC as the molecule, how does the Potency read?
The Potency was active: 16.4 µM.

Which “activity change, negative = cytotoxicity” value does the source give for NNC(=O)c1ccc(Cn2cc(Br)cn2)o1 here?
Its value is inactive: 5.68%.

With COc1ccc(C(=O)Nc2ccccc2N2CCCC2)cc1S(=O)(=O)N1CCOCC1 as the molecule, how does the Potency read?
The Potency was inconclusive: 6.51 µM [cytotoxic, partial curve].

For Cc1ccc(Cn2ncc3c(N4CCN(C)CC4)ncnc32)cc1, which Potency is on record?
Its Potency is inconclusive: 23.1 µM [cytotoxic, single point].

Which activity change, negative = cytotoxicity does the source give for C[C@H](NC(=O)c1ccccc1)C(=O)OCC(=O)c1c[nH]c2ccccc12 here?
Its activity change, negative = cytotoxicity is inconclusive: 4.45%.

For O=C(NNC(=S)NC(=O)c1ccco1)c1ccc(NC(=O)c2ccccc2)cc1, which Potency is on record?
The Potency was inconclusive: 4.11 µM [cytotoxic, full curve].

For CC(C)NC(=S)NC1(C)CCS(=O)(=O)C1 (configuration not stated), which Potency is on record?
The Potency was inconclusive: 29.1 µM [rising, single point].

Which “activity change, negative = cytotoxicity” value does the source give for Cc1cccc(OCCNc2ccc(C(F)(F)F)cc2[N+](=O)[O-])c1 here?
The value was inactive: -6.07%.

Which Potency does the source give for N#CCCN(C(=O)Nc1ccc(Cl)c(Cl)c1)C1CCCCC1 here?
Its Potency is inconclusive: 20.6 µM [cytotoxic, single point].

With O=C(CSc1nccc(=O)[nH]1)Nc1ccc(F)c([N+](=O)[O-])c1 as the molecule, how does the Potency read?
The Potency was inconclusive: 29.1 µM [rising, single point].
